Measured values as given in publication PMC9064986.
These are yes or no findings as the source states them, for the method shown. Binding calls can cover weak binding; strength is not graded here.

Legend:
[1] = biological target: T1, BMP10 growth factor (GF)-domain from Pro:BMP10 made in HEK EBNA cells (human) (UniProt O95393); experiment: crystal structure; prodomain-bound BMP10 (Pro:BMP10), crystal form 1 (mutant prodomain, 2.90 Å) and crystal form 2 (WT, 3.5 Å), C2221; both purified
T1 sequence: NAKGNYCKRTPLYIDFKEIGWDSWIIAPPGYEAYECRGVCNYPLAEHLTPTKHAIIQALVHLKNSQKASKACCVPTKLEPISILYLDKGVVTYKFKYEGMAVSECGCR

[2] = biological target: T2, Recombinant human BMP10 growth factor (GF)-domain (R&D Systems) (human) (UniProt O95393); experiment: SPR; Biacore T200; BMP10 GF-domain amine-coupled to a CM5 chip (1300 RU); ALK1-Fc, BMPRII-Fc or monomeric BMPRII WT and mutant ECDs injected at 40 ul/min; 10 mM HEPES pH 7.4, 150 mM NaCl, 3.4 mM EDTA, 0.5 mg/ml BSA, 0.005% P20, 25 °C; 1:1 model, KD = kd/ka; both purified
T2 sequence: T1 sequence

| binding [1] | binding [2] | Substance |
| --- | --- | --- |
| binds |  | BMP10 prodomain with surface-entropy mutations (of the mutant Pro:BMP10, crystal form 1) (from UniProt O95393) (domain or fragment) |
|  | binds | BMPRII ECD ΔGDP (from UniProt Q13873-1) (domain or fragment) |
